Laboratory results from doi:10.1101/2023.03.15.532746.
Results are given in words; binding and its absence hold for the method and conditions named. In cells and extracts the contact can be indirect. Some results given as binding are weak or reduced against the parent protein; the word gives no strength. Where a sequence is shown, tags or fusion partners need not be part of it.

Protein sequences, listed by entry. Tags and fused reporters are not part of them.
UniProt Q99JR8: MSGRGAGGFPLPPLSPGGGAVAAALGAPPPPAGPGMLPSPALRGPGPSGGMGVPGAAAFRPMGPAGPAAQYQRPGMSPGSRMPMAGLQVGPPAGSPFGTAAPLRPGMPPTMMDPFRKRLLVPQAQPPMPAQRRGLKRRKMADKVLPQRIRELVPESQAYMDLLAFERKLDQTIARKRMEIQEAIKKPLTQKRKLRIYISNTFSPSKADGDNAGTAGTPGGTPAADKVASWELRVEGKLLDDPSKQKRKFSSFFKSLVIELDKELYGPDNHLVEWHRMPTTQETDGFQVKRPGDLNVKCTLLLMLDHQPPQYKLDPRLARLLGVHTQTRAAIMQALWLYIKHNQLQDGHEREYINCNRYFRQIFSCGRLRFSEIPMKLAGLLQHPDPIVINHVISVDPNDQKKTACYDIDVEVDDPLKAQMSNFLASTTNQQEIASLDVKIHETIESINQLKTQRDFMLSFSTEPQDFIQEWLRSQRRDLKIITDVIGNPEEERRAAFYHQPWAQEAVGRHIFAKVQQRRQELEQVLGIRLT
UniProt Q6P9Z1: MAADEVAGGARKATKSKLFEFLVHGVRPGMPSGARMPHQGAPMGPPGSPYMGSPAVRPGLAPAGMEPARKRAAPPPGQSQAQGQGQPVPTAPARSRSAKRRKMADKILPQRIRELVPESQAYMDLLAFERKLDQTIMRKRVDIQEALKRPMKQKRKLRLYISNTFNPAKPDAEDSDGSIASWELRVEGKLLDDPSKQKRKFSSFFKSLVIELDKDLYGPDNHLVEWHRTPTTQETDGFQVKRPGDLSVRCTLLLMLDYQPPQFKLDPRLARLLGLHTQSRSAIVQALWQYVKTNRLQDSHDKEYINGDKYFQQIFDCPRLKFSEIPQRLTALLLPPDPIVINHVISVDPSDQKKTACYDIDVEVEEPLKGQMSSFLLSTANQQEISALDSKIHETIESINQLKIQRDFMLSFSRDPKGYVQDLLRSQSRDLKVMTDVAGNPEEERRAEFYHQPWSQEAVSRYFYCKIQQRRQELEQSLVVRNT

Key:
Test in all cases: co-IP
GFP-tagged EOMES = target: T1, GFP-tagged EOMES (UniProt O54839)
T1 sequence: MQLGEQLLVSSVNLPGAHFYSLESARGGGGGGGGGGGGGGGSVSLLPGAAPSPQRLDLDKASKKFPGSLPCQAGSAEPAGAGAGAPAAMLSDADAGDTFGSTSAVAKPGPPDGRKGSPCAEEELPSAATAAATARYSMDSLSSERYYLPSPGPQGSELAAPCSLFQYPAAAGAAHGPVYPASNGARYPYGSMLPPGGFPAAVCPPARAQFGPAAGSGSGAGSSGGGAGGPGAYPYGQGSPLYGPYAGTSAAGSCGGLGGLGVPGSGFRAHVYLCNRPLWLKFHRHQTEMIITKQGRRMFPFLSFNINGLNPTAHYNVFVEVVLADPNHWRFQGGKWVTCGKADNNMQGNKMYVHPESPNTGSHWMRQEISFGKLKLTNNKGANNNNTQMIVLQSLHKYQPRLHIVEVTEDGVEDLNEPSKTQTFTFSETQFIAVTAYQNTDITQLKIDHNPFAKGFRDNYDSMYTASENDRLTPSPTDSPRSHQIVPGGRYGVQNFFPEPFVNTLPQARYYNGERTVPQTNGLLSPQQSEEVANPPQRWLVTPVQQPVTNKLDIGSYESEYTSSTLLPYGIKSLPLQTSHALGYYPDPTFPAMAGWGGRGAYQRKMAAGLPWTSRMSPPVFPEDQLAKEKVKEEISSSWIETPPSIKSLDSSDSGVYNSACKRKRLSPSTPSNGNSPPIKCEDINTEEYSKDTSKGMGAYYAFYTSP

GFP-tagged BRACHYURY = target: T2, GFP-tagged BRACHYURY (UniProt P20293)
T2 sequence: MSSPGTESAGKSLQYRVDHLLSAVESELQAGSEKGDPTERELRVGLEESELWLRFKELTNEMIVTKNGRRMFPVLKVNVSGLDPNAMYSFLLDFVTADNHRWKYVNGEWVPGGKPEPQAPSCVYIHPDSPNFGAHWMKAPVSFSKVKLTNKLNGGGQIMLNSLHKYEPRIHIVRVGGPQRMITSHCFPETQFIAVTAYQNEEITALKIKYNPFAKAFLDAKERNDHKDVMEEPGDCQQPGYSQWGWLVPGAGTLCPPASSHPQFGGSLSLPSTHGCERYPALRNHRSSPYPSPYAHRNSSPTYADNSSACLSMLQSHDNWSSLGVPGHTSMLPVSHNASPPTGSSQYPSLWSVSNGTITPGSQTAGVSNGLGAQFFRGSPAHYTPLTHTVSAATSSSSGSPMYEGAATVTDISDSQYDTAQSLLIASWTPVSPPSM

GFP-tagged EOMES, O54839 = target: T3, GFP-tagged EOMES, O54839; conditions: remark: other sources report otherwise
T3 chain: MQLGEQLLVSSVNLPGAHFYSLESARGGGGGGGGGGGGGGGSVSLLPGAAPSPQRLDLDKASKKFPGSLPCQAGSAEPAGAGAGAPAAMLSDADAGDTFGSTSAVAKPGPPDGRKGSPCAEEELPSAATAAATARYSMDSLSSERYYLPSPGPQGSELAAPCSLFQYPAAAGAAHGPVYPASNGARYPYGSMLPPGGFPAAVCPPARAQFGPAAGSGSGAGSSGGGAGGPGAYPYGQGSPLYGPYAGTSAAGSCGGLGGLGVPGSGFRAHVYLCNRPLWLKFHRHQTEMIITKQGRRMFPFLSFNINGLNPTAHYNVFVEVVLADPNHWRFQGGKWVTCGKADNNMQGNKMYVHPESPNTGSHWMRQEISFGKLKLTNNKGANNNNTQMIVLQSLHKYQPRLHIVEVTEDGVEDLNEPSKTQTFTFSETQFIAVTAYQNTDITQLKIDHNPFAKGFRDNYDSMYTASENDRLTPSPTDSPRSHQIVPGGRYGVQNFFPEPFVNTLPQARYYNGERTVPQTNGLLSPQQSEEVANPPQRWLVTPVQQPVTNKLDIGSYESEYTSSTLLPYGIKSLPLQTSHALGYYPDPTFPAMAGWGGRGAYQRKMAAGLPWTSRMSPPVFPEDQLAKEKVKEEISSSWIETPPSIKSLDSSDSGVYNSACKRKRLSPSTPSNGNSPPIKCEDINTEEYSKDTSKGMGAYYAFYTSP

What does the source list for “V5-tagged SMARCD2 (from UniProt Q99JR8 1-531)”?
binding (GFP-tagged EOMES): binds; binding (GFP-tagged BRACHYURY): binds

“V5-tagged SMARCD3 (from UniProt Q6P9Z1 1-483)” was tested. Which binding (GFP-tagged EOMES) did it give?
The binding was “no binding”.

B1: V5-tagged SMARCD1, Q61466 1-515 (protein)
chain: MAARAGFQSVAPSGGAGASGGAGVAAALGPGGTPGPPVRMGPAPGQGLYRSPMPGAAYPRPGMLPGSRMTPQGPSMGPPGYGGNPSVRPGLAQSGMDQSRKRPAPQQIQQVQQQAVQNRNHNAKKKKMADKILPQRIRELVPESQAYMDLLAFERKLDQTIMRKRLDIQEALKRPIKQKRKLRIFISNTFNPAKSDAEDGEGTVASWELRVEGRLLEDAALSKYDATKQKRKFSSFFKSLVIELDKDLYGPDNHLVEWHRTATTQETDGFQVKRPGDVNVRCTVLLMLDYQPPQFKLDPRLARLLGIHTQTRPVIIQALWQYIKTHKLQDPHEREFVLCDKYLQQIFESQRMKFSEIPQRLHALLMPPEPIIINHVISVDPNDQKKTACYDIDVEVDDTLKTQMNSFLLSTASQQEIATLDNKIHETIETINQLKTQREFMLSFARDPQGFINDWLQSQCRDLKTMTDVVGNPEEERRAEFYFQPWAQEAVCRYFYSKVQQRRQELEQALGIRNT
How did the binding (GFP-tagged EOMES, O54839) turn out when B1 was run?
The binding was “no binding”.
